The test has as its target wild type Bcl-2 (overexpressed in WEHI7.2 cells) (UniProt P10415). As to the kind of experiment: biotin-streptavidin pull-down from WEHI7.2 lysate, western blot for Bcl-2.

Protein sequences, listed by entry. Tags and fused reporters are not part of them.
UniProt P10415: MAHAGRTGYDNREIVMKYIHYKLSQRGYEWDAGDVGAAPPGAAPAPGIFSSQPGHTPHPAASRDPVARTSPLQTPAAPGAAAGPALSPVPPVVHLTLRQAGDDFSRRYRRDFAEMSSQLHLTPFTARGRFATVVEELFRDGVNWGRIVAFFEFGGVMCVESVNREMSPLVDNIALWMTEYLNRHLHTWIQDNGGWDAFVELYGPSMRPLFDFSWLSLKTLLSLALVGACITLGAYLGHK

No constants are given. Whether binding was seen depends on the method and setting. In cells and extracts the contact can be indirect. Some entries that bind do so weakly or less than the wild type.

In the case of NVYTEIKCNSLLPLAAIVRV (biotin (position not given)) [biotin-IDPDD/AA], the binding entry is given as “binds”.
